Earlier results in patent publication US20090042770A1, “Branched Chain Amino Acid Chelate” (priority 2007, published 2009).
Some of these results come from one statement about several compounds together.

Settings: pre-hydrolyzed BSA perfused into jejunum of human subjects (Reicht et al. 1997); cited from earlier work

| SMILES | rate of absorption [%] |
| --- | --- |
| C[C@H](N)C(=O)O [alanine] | ≥ 50 |
| N[C@@H](Cc1ccccc1)C(=O)O [phenylalanine] | ≥ 50 |
